Results are given in words; binding and its absence hold for the method and conditions named. In cells and extracts the contact can be indirect. Some results given as binding are weak or reduced against the parent protein; the word gives no strength. Sequences can lack the tags named with a protein.
B1: HRDE-2::2xTy1::GFP (protein, UniProt Q22058 1-305)
chain: MSQNSDTFDSGLQMEVHKMAEADNSSVQQKFDAIRDYIGRKETTIILCEHDDSRKIKLTLNKQRMESSMFLTEMPDGGIQEKTKFHRNGLAVCSYNAFDEVDLPLADSYIFYGLPSNVEAFPRMLHGIEKSAHKENKIVFIDIVVSILEKIQIKVVSFELYNRKCTVPTWVAELVITYCAPIEEQQQRIEEIRRTRASVPVAISDAANGSAEMVPSNTTGSSGSPMSTAPVPAAKKEKVQYESIRQIRPNAQGRYFVPARMINMDIEMSNDEYSPDESENDENEYDYENAARYDDGYDEGHEYCQ
B2: SIMR-1::mCherry::2xHA (protein, UniProt O01477 1-691)
chain: MSNEKQQWDDAYCLAEEMHDAGRPFKREELNIADQFICSRFSTIFEYDPYKDTYGFRNQELTHAIPVKSKCRHISDVDILELKKNTANADIRFPSYLNICPVYAMHPFTVLAFDLSKPVPMGMNASMENAAPNMKSPTEAEITPGTIYIFKHRDNKCYRCVILFEDGDNNVSDADRKYMVAFLDTPQVVSVKLKTLFHLGKFTIESYPCALYCCRAVGILEIRKDFGADLNGQINEFYKDKVKRKSGVHALIYKKDDRGDKLIFDCPSILGTSMTMALEIKDVIGHRSVAENDPTALSYDELVSKQLPTVDIDDHNSSVVLDLEESVIAQELGSTNGADCPCNNDNIDDFMQSQRQNPLDNNRDNWDRINESRSSMQSFAINQSQAITANPTPQPTFDESSGEVQTIPESINNLALNGRYLEDGRGTEEIREERSVESRQIGNQVVSQASCNYLEARQNSTQTANAESVCAIISESHAALPTDIQVIPSQHVLNENNHTVLPSVAPIIRNATGHSHIFGRQIPSPAFRRESLSSGNSIQVATFAATTGPCGSNTSRPTAQNTANSSINQDMSISNSSTNARLITIAQDNLNDTENWPNSEREQSATEMESGAEATTNSAVDEFAQVSDDMKGLADSMINFLRLTANSNNQDAFKANIFAMELISTKIPNQLTKRFFTLKIAEAKSLAEGFN

What was measured:
Assay in all cases: co-IP
[1] = biological target: T1, SIMR-1::mCherry::2xHA (C. elegans) (UniProt O01477)
T1 sequence: B2 chain

[2] = biological target: T2, GFP::3xFLAG::HRDE-1 (C. elegans) (UniProt Q09249)
T2 sequence: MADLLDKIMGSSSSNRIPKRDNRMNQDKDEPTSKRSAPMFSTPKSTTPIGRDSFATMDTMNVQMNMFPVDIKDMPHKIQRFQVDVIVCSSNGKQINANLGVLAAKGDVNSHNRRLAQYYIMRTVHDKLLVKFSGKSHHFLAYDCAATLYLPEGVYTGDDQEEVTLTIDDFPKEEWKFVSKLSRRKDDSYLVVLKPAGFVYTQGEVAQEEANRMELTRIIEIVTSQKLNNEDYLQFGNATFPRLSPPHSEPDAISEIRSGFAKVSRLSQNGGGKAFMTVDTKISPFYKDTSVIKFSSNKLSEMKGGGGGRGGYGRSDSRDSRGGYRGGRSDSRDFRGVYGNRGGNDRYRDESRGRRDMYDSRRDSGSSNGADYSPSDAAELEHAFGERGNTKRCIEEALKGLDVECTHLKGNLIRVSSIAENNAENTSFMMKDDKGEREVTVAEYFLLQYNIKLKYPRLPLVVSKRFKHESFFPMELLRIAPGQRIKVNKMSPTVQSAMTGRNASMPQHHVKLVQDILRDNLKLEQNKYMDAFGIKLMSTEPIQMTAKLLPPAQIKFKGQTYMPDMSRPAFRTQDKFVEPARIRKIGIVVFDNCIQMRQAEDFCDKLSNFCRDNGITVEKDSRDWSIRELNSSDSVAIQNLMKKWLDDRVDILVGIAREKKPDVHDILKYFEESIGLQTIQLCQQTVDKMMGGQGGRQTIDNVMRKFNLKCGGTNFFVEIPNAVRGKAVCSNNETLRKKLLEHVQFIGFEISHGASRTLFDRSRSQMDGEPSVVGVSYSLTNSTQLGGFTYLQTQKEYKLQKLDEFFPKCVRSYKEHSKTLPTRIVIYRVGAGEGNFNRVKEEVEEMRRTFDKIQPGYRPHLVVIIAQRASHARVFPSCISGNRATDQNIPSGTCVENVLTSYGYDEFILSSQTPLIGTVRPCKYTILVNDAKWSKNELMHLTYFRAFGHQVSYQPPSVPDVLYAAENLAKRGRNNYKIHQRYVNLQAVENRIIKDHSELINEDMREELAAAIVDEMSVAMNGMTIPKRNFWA

[3] = biological target: T3, HRDE-2::2xTy1::GFP (C. elegans) (UniProt Q22058)
T3 sequence: B1 chain

Binder	binding [1]	binding [2]	binding [3]
B1	no binding	binds	–
B2	–	–	no binding

Source: article doi:10.1101/2023.08.01.551545
